The results in this text go back to PMC8321701.

Chains of the proteins cited; added tags and fusions are not shown. Lines headed by an entry give the natural chain unless they say otherwise; changes in a name come on top.
UniProt P62745: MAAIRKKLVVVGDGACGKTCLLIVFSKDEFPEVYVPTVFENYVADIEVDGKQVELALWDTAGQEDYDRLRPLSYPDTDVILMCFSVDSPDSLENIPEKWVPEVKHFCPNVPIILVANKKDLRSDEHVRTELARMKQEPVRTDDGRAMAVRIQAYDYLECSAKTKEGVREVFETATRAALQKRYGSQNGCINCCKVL

No constants are given. Whether binding was seen depends on the method and setting. For some of these results: A result given as binding can be weak or reduced; the word gives no strength. For some of these results: Binding seen in cells or lysates may run through a third protein.

For experiment [1], the target named is T1, biotinylated CNKSR1 (wild-type) (human) (UniProt Q969H4).
T1 sequence (chain, biotinylated): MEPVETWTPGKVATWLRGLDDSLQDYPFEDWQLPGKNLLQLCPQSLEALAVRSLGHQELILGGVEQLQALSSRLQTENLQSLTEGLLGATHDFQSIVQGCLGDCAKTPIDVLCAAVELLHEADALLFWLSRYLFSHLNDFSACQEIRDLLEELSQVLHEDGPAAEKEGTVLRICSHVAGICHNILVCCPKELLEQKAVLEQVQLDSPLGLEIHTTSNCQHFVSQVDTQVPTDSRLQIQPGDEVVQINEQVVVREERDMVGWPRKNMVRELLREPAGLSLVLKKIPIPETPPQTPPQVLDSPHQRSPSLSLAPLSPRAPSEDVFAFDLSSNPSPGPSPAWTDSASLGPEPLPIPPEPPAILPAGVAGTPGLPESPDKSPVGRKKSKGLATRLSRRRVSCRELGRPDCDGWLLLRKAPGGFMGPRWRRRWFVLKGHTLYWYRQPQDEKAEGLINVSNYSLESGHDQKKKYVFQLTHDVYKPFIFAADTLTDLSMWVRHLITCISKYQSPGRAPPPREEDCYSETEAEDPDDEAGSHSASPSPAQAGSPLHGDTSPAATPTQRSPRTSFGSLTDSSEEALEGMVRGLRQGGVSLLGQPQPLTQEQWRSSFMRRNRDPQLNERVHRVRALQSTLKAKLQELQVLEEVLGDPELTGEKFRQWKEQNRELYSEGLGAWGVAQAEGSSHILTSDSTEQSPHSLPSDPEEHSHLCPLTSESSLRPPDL
The experiment is described as follows: AlphaScreen or HTRF; high-throughput screen: biotinylated CNKSR1 (WT, W493A) or RhoB (Q63L) bait with 171 FLAG-GST-tagged human phosphatases (154 full length, 17 catalytic domains); threshold 10 times the signal for CNKSR1-biotin/FLAG-DHFR; wheat cell-free translation products.

Experiment [2] concerns the target purified His-RhoB (Q63L) (human) (UniProt P62745). Put plainly: pull-down; lysates of SKBR-3 cells expressing Myc-CNKSR1 (WT, ΔPH or W493A) in IP buffer (25 mM Tris-HCl pH 7.4, 150 mM NaCl, 1% NP-40, 1 mM EDTA, 5% glycerol) incubated with purified His-tagged RhoB (Q63L) 2 h at 4°C, then TALON resin 1 h at 4°C; Western blot; only the target purified.

Turning to “FLAG-GST-tagged PTPRJ of the human phosphatase array”, in experiment [1], the binding entry is reported as “binds”.

For the substance “FLAG-GST-tagged PTPRR of the human phosphatase array”, the binding entry in experiment [1] is given as “binds”.

On to “FLAG-GST-tagged PTPRM of the human phosphatase array”, for which, in experiment [1], the binding result is “binds”.

For the substance Myc-CNKSR1 (ΔPH) (from UniProt Q969H4), the binding entry in experiment [2] is listed as “no binding”.
